In one assay the target is T1, FLAG-SEC12 (UniProt Q9HCU5).
T1 sequence: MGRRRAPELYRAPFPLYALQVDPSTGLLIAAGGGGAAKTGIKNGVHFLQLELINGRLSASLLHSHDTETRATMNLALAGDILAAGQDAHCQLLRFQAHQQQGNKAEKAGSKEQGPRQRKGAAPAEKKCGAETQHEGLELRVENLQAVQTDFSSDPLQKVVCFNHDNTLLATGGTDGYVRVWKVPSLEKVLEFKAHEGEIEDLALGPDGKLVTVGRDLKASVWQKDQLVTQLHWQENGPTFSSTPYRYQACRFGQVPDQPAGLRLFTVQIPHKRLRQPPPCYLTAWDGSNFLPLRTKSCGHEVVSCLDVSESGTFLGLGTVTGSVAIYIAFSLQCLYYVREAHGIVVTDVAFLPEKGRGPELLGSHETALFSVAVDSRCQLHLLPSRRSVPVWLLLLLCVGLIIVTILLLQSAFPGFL
In words: co-IP.

In assay [1] the target is T2, SEC12 (endogenous) (human (endogenous in HeLa)) (UniProt Q9HCU5).
T2 sequence: T1 sequence
The assay is described as follows: native gel or EMSA.

No constants are given. Whether binding was seen depends on the method and setting. Binding calls can cover weak binding; strength is not graded here. For some of these results: Binding seen in cells or lysates may run through a third protein. For some of these results: Where a sequence is shown, tags or fusion partners need not be part of it.

As to “ATG9 (endogenous) (human (endogenous in HEK293T))”, in the assay with FLAG-SEC12, the binding entry is reported as “no binding”. The same measure, in the same setting: the value for “ATG16 (endogenous) (human (endogenous in HEK293T))” was “no binding”. Take “CTAGE5 (endogenous) (human (endogenous in HEK293T and HeLa))”: the binding result (with FLAG-SEC12; in assay [1]) was “binds” in each case.

For the origin of these results see doi:10.1101/168518.
